Results are given in words; binding and its absence hold for the method and conditions named. Binding seen in cells or lysates may run through a third protein. Some results given as binding are weak or reduced against the parent protein; the word gives no strength. Sequences can lack the tags named with a protein.
Target: T1, Flag-MTR4 (Mtr4 exosome RNA helicase) (UniProt P42285)
T1 sequence: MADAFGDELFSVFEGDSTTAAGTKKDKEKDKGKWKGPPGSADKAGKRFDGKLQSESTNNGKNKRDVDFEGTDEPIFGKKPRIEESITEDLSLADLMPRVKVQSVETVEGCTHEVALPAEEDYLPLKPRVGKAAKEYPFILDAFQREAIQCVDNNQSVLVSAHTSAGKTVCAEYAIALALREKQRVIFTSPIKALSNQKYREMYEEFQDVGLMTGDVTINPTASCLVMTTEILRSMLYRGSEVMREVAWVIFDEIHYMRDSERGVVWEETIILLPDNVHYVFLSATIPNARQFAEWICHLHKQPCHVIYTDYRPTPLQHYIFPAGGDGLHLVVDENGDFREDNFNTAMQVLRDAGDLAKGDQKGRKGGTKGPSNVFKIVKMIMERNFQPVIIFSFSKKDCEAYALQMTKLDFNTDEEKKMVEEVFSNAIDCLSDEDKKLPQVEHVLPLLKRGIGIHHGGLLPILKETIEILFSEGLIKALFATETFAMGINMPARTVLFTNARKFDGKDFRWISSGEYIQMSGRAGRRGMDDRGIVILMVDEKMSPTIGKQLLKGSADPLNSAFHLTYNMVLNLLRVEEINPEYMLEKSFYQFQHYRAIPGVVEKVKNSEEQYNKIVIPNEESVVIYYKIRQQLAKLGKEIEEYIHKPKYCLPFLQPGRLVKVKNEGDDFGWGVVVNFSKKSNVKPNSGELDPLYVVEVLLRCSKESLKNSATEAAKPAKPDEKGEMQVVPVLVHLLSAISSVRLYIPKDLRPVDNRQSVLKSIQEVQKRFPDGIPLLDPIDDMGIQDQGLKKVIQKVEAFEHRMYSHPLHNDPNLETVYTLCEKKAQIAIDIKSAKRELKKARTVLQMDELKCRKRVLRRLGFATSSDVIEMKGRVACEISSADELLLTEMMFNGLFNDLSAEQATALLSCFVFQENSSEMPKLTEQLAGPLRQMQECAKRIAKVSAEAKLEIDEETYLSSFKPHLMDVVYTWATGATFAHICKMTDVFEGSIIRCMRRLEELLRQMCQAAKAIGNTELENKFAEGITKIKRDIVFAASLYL
Assay: co-IP; HEK293T cells co-transfected with Flag-MTR4 and SYVN1; extracts immunoprecipitated with anti-Flag treated protein A/G beads, immunoblotting; also after cultivation in methionine-restricted medium (MRM) for 24 h

Chains of the proteins cited; added tags and fusions are not shown.
UniProt Q86TM6: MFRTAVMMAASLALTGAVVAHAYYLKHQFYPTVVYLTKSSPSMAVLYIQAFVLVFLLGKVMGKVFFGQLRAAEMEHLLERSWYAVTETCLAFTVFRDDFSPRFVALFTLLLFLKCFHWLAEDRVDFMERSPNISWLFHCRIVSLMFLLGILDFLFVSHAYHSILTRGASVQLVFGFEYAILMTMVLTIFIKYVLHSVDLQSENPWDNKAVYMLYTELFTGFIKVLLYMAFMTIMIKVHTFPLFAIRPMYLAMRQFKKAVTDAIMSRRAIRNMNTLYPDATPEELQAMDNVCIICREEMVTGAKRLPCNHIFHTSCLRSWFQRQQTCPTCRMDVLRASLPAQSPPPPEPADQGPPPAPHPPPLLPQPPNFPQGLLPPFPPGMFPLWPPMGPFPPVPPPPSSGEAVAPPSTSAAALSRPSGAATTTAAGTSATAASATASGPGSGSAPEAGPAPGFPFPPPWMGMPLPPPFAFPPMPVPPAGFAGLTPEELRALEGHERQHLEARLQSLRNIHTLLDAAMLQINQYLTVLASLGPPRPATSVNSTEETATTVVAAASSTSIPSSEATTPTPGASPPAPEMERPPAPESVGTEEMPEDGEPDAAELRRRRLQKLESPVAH

- binding: binds
Substance: SYVN1 (E3 ubiquitin ligase) (from UniProt Q86TM6 1-617)
